The test system of this experiment is K562 cells. As to the kind of experiment: In situ ultra violet irradiation of dosed K562 cells, IC50. It counts as cell-based, human. To be noted: read-out: IC50 originally (before ultraviolet light). The procedure:
Previously, the isomerisation study had been performed ex situ, i.e. in a photochemical reactor. However, it was necessary to illustrate the potential of the process as a real therapy by repeating the isomerization in the presence of the caner cells i.e. in situ. […] Following irradiation, the cells were incubated in the normal way and the IC50 values were determined.
These consisted of i) exposing K562 cells only (i.e. cells which were not dosed with any potential drug candidate) to ultra violet light, ii) preventing K562 cells dosed with drug candidate from being exposed to ultra violet light, and iii) preventing K562 cells only (i.e. cells which were not dosed with any potential drug candidate) from being exposed to ultra violet light. […]

Experimental findings from US7220784B2, “Substituted stilbenes and their reactions” (priority 2000, dated 2007) are described below.

Consider `COc1ccc(/C=C/c2cc(OC)c(OC)c(OC)c2)cc1O` [trans-CA-4, trans-combretastatin A-4], for which the IC50 was found to be 5 µM.

In general, IC50 refers to the concentration at which inhibition is half-maximal.
